The supplement of paper PMC12823440, “Inhibitors supercharge kinase turnover through native proteolytic circuits” (Nature, 2025)
Counter-ions that a name gives are not always drawn. This is one part of the list. The calls rarely recur for the same compound in another form.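 Kinases were expressed as nanoluciferase fusions in K562 cells and luminescence was read every 4 h between 2 and 18 h as percent of control, DMSO set to 100% and a positive control to 0%. A time point counts as decreased when the signal drops significantly (2 sigma). The hit call is the authors' own, does not follow from the count of time points alone, and its rule is not shown.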

Amino acid sequences for entries named in this document (tags omitted). A change or cut given only in a name is not applied to a line headed by its entry.
UniProt O15530: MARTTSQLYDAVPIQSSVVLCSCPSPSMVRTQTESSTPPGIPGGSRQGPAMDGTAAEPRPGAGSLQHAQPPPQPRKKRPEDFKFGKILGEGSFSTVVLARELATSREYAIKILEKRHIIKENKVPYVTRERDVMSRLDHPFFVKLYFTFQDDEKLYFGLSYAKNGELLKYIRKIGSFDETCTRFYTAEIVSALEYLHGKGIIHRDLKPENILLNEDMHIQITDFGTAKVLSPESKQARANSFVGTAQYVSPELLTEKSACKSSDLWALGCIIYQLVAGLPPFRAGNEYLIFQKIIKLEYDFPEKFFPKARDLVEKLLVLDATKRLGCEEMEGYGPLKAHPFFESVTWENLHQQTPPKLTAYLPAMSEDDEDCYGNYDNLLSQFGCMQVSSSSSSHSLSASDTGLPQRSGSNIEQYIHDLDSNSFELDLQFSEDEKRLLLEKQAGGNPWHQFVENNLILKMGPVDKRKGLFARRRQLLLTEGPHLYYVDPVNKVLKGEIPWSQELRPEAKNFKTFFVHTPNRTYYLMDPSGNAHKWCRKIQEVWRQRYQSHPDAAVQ

What follows are compounds tested against PDPK1 (UniProt O15530) (assay: number of time points (of 5) at which kinase-Nluc abundance scored as decreased, DMSO-normalised (count); higher = more persistent destabilization). Settings: K562; 2-18 h.

| SMILES | number of time points |
| --- | --- |
| C[C@@H](c1ccc2nccn2c1)n1nnc2ncc(-c3cnn(C)c3)nc21 [Savolitinib] (10 µM) | 0 |
| CN1C(=O)C(Cc2c[nH]c3ccccc23)NC1=S (stereo not drawn) [Necrostatin-1] (10 µM) | 0 |
| C[C@@H]1C(=O)O[C@H](C)[C@H]1C[C@@H](O)[C@](C)(O)[C@H]1CC[C@@]2(O)C3=CC(=O)[C@@H]4C[C@@H](O)[C@@H](O)C[C@]4(C)[C@H]3CC[C@]12C [Cyasterone] (10 µM) | 0 |
| CC(c1ccc(-c2cnc3c(-c4ccc(S(N)(=O)=O)c5ccccc45)cnn3c2)cc1)N1CCCC1 (stereo not drawn) (2.5 µM) | 0 |
| CCn1c(=O)c(-c2ccc(-c3cncc(C)n3)cc2Cl)cc2cnc(NCCC3CCN(C)CC3)nc21 (10 µM) | 0 |
| O=C(O)c1cc(O)ccc1O [2,5-Dihydroxybenzoic acid] (10 µM) | 0 |
| CC(=NNC(=O)c1ccc(C)c(Br)c1)c1ccc(O)cc1O [mTOR inhibitor-1] (2.5 µM) | 0 |
| Nc1ncnc2c1ncn2[C@@H]1O[C@H](CO)C[C@H]1O [Cordycepin] (10 µM) | 0 |
| C=CC(=O)Nc1cc2c(Nc3ccc(OCc4ccccn4)c(Cl)c3)ncnc2cc1OCCN1CCOCC1 (10 µM) | 0 |
| Cc1ccc(S(=O)(=O)Nc2ccccc2C=Nc2ccccc2NS(=O)(=O)c2ccc(C)cc2)cc1 (10 µM) | 0 |
| CCOc1cc(C(=O)N2CCC(N3CCN(C)CC3)CC2)ccc1Nc1ncc2c(n1)N(C1CCCC1)c1ccccc1C(=O)N2C (10 µM) | 0 |
| Cn1cnc(-c2cc3nccc(Oc4ccc(NC(=S)NC(=O)Cc5ccccc5)cc4F)c3s2)c1 [MGCD-265 analog] (10 µM) | 0 |
| Cn1c(=O)c(F)c(Nc2ccc(I)cc2F)c2c(=O)n(C[C@@H](O)CO)cnc21 (10 µM) | 2 |
| Nc1ncnc2c1c(-c1ccc(Oc3ccccc3)cc1)nn2C1CCNCC1 [N-piperidine Ibrutinib (hydrochloride)] (10 µM) | 0 |
| Cc1csc(-c2nnc(Nc3ccc(Oc4ncccc4-c4ccnc(N)n4)cc3)c3ccccc23)c1 (2.5 µM) | 0 |
| O=C(O)CCc1ccc(O)c(O)c1 [Dihydrocaffeic acid] (10 µM) | 0 |
| COCCOc1cnc(Sc2cc(C)c(-c3csc(NC(=O)c4ccncc4)n3)c(C)c2)cn1 [T-1101 (tosylate)] (2.5 µM) | 0 |
| Cc1cc(NC(=O)c2cccc(NC(=O)/C=C/CN(C)C)c2)ccc1Nc1nccc(-c2cccnc2)n1 (10 µM) | 0 |
| Cc1c(NC(=O)OC[C@@H]2COCCN2)cn2ncnc(Nc3ccc4c(cnn4Cc4cccc(F)c4)c3)c12 (10 µM) | 0 |

| SMILES | number of time points |
| --- | --- |
| Cc1ccc(-c2c(C(=O)CF)n(CCCO)c3ncnc(N)c23)cc1 (10 µM) | 0 |
| Cc1ccc(-c2c(C(=O)CCl)n(CCCO)c3ncnc(N)c23)cc1 (10 µM) | 1 |
| COc1cc(F)c(F)c(Nc2ccc(I)cc2F)c1NS(=O)(=O)C1(C[C@H](O)CO)CC1 [Refametinib] (10 µM) | 1 |
| CCN(CC)c1ccc2cc(C(=O)N3CCN(C(=O)C4=Cc5c(Br)cccc5S4(=O)=O)CC3)c(=O)oc2c1 (2 µM) | 0 |
| COc1ccc(C(=C2C(=O)Nc3ccccc32)c2ccc(OC)cc2)cc1 (10 µM) | 0 |
| N#Cc1ccc2ncnc(NC3CCC(N4CCOCC4)CC3)c2c1 (stereo not drawn) (10 µM) | 0 |
| NCCN1CCN(C/C=C/C(=O)N2CCC[C@@H](n3nc(-c4ccc(Oc5ccccc5)cc4)c4c(N)ncnc43)C2)CC1 [Ibrutinib-MPEA] (10 µM) | 0 |
| CN(CC(=O)N(Cc1ccc(C2CCCCC2)cc1)c1ccc(C(=O)O)cc1)S(=O)(=O)c1c(F)c(F)c(F)c(F)c1F (2.5 µM) | 0 |
| CCn1c(C(=O)N(C2CC2)C2CC2)cc2c3c(ncn3C)c(Nc3cc(C)n(C)n3)nc21 (10 µM) | 0 |
| CC(C)CN(CC(=O)N1CCN(CC(OCc2ccc3ccccc3c2)c2ccc(Cl)cc2Cl)CC1)CC(C)C (stereo not drawn) [LYN-1604 (dihydrochloride)] (2.5 µM) | 0 |
| COc1ccc2[nH]cc(/C=C3\C(=O)Nc4ccc(NC(=O)CCN5CCCCC5)cc43)c2c1 (2.5 µM) | 0 |
| CC(C)=CC(=O)CCC(=O)N1CCN(Cc2cc3nc(-c4cccc5[nH]ncc45)nc(N4CCOCC4)c3s2)CC1 (10 µM) | 0 |
| O=C(NCCO)c1ccc2c(c1)nc(Nc1cccc(Cl)c1)c1ccncc12 [CK2 inhibitor 2] (10 µM) | 0 |
| COc1ccc(CC(=O)Nc2nc3c(s2)CCc2ccccc2-3)cc1OC (10 µM) | 0 |
| c1cc2c(cc1O[C@H]1OC[C@H]3[C@@H]1CO[C@@H]3c1ccc3c(c1)OCO3)OCO2 [Sesamolin] (10 µM) | 0 |
| OCCNC1CCCc2c1[nH]c1ccc(-c3ccccc3)cc21 (stereo not drawn) (2.5 µM) | 0 |
| CNc1nc(Nc2cnn(C3CCN(C4COC4)CC3F)c2Cl)ncc1C(F)(F)F (stereo not drawn) (10 µM) | 0 |
| Cc1cc2cc(Nc3ccnc(Nc4ccc5[nH]c(C)cc5c4)n3)ccc2[nH]1 (2.5 µM) | 0 |
| CC(C)(C)NC(=O)c1cncn1C1CCN(c2ccc(-c3nnc(C(F)(F)F)o3)cn2)CC1 (10 µM) | 0 |

A second format for 3 compounds above.
SMILES	number of time points
Cc1ccc(S(=O)(=O)Nc2ccccc2C=Nc2ccccc2NS(=O)(=O)c2ccc(C)cc2)cc1 (10 µM)	0
Cc1csc(-c2nnc(Nc3ccc(Oc4ncccc4-c4ccnc(N)n4)cc3)c3ccccc23)c1 (2.5 µM)	0
Cc1cc2cc(Nc3ccnc(Nc4ccc5[nH]c(C)cc5c4)n3)ccc2[nH]1 (2.5 µM)	0
